Test results from patent US5981704A, “Kainate-binding, human CNS receptors of the EAA2 family” (Allelix Biopharmaceutical, priority 1997, dated 1999).
For at least one compound, name, drawing or mass did not settle the structure.

Legend:
[1] = biological target: T1, human EAA2a receptor (Homo sapiens, UniProt Q16478); assay: [3H]-kainate binding assay (Scatchard analysis and displacement) on membranes of transfected COS-1 cells
T1 construct: This modification permitted the full length cDNA insert to be released as a 3.7 kb NotI/NotI fragment; expressed in transfected cells; host or cells: COS-1 (ATCC CRL 1650), transient, plasmid pcDNA1/humEAA2a; membranes
T1 sequence (Q16478 15-980): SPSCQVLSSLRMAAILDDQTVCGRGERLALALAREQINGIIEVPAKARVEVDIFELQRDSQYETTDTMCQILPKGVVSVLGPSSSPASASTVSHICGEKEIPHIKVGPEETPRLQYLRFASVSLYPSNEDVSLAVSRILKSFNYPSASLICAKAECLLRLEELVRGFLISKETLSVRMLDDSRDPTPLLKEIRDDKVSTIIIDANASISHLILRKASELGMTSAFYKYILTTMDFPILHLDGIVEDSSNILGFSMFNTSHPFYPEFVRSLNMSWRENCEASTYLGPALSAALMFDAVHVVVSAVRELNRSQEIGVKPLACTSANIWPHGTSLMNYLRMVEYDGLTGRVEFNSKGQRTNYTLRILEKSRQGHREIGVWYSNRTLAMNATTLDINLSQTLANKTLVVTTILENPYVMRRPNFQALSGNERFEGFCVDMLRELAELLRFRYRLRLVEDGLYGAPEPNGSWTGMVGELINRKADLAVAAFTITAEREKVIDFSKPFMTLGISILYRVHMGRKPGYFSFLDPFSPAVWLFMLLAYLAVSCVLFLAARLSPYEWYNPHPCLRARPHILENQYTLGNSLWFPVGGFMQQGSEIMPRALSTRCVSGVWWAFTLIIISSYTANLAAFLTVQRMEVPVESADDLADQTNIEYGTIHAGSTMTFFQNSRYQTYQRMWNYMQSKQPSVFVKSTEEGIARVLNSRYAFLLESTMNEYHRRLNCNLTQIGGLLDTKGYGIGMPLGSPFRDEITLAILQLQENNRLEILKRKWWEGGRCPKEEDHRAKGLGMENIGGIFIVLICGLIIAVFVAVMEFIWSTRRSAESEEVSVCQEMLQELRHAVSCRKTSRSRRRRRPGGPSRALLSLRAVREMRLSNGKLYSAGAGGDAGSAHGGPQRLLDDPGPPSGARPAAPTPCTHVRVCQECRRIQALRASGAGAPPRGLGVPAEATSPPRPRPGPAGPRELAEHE
Procedure: Transfected cells in the frozen state were resuspended in ice-cold distilled water using a hand homogenizer and centrifuged for 20 minutes at 50,000 g. The supernatant was discarded and the membrane pellet stored frozen at -70° C.
COS cell membrane pellets were suspended in ice cold 50 mM Tris-HCl (pH 7.55, 5C) and placed inside Spectrapor 7 (EDTA-treated, sulfur-fee) dialysis tubing. The suspension was placed in 4 liters of ice cold 50 mM Tris-HCl (pH 7.55, 5C) and dialyzed for 16-24 hours at 5C in order to remove endogenous glutamate that would compete for binding. The tissue suspension was recovered from the tubing along with a small volume of buffer used to rinse the tubing. This resultant membrane preparation was used as tissue source for binding experiments described below. Proteins were determined using the Pierce Reagent with BSA as standard.
Binding assays were then performed, using an amount of COS-derived membrane equivalent to from 25-100 ug as judged by protein determination and selected radiolabelled ligand. In particular, glutamate binding assays entailed formation of an incubation mixture consisting of 25-100 ug of tissue protein, and [3.4-3H]L-glutamic acid (47.3 Ci/mmole, 10 nM final) in 50 mM Tris-HCl (pH 7.55, 5C) in 1 ml final volume. Non-specific binding was in the presence of 1 mM L-glutamate. Samples were incubated on ice for 60 minutes in plastic minivials. Bound and free ligand were separated by centrifugation for 10 minutes at 50,000 g (4° C.). Tissue pellets were washed superficially with 2×6 ml of ice cold incubation buffer. Pellets were solubilized and counted in 5 ml of Beckman Ready Protein Scintillation cocktail.
For kainate binding assays, incubation mixtures consisted of 25-100 μg tissue protein and [vinylidene-3H] kainic acid (58 Ci/mmole, 5 nM final) in the cold incubation buffer, 1 ml final volume. Non-specific binding was in the presence of 1 mM L-glutamate. […] Filters were washed twice in 6 ml of the cold incubation buffer, then placed in scintillation vials with 5 ml of Beckman Ready-Safe scintillation cocktail for counting.

[2] = biological target: T1, human EAA2a receptor; assay: [3H]-AMPA binding assay on membranes of transfected COS-1 cells

Row | Structure (SMILES) | demonstrable binding of NMDA [1] | displacement of kainate ([1]; concentrations up to 100 uM) | rank order of potency in displacement of [3H]-labelled kainate binding ([1]; FIG. 6) | demonstrable binding of AMPA [2]
1 | CN[C@H](CC(=O)O)C(=O)O [NMDA, N-methyl-D-aspartate] | little or no demonstrable binding | No displacement | – | –
2 | Cc1onc(O)c1CC(N)C(=O)O (stereo not drawn) [AMPA, alpha-amino-3-hydroxy-5methyl-isoxazole-4-propionate] | – | – | kainate>domoate>quisqualate>glutamate>DNQX>dihydrokainate>CNQX>AMPA | little or no demonstrable binding
